Reference: article PMC5602382

Protein sequences, listed by entry. Tags and fused reporters are not part of them.
UniProt P22392: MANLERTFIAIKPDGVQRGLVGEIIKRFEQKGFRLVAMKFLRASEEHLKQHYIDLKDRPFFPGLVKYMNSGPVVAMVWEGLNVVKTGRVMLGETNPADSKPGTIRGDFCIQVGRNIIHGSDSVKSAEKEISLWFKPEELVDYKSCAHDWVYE
UniProt Q13547: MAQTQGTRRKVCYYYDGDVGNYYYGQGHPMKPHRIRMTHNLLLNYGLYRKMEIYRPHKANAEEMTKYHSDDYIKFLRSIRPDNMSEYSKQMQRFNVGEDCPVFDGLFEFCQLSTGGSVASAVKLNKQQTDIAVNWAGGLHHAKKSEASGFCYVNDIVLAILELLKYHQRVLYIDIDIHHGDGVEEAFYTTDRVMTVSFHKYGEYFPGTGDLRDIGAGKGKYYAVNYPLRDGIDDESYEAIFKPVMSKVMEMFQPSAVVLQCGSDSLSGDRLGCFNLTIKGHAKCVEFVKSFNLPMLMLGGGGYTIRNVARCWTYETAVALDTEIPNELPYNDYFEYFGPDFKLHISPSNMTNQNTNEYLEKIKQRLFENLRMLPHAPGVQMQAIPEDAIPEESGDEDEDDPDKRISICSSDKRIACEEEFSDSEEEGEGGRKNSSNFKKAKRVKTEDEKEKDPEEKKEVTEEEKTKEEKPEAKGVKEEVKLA

Target: non-metastatic 2 (NME2) (human (endogenous in HT1080)) (UniProt P22392)
Assay: affinity purification with mass spectrometry; immunoprecipitation with anti-NME2 antibody from nuclear extract of HT1080 cells, SDS-PAGE bands, LC-MS/MS, 1% false discovery rate

binding: binds
Substance: HDAC1 (from UniProt Q13547 1-482)

Results are given in words; binding and its absence hold for the method and conditions named. In cells and extracts the contact can be indirect. A yes stands for co-enrichment or nearness to the bait. Other partners may have been found.
